PubChem BioAssay AID743121, NCATS – 2013
The whole screen tested about 26,000 reagents; below is an unselected part. Of all reagents, 167 (0.63%) got an active call. 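Calls are per gene from RSA p-values that are not deposited; an individual active-marked siRNA can sensitise only weakly.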 Unmarked entries are inactive. The numbers tell different reagents against one gene apart. Further read-outs or replicates are left out here.

Assay: 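Knock-downs that sensitise breast cancer cells to camptothecin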 (primary screen)
Cells: MDA-MB-231 cells, a human breast cancer line
Reagent: single siRNA against human genes, 20 nM siRNA (0.8 pmol per well)
Duration: 120 h (drug added 48 h after transfection, read 72 h later)
Challenge: camptothecin 20 nM (about EC30) for 72 h; vehicle 0.1% DMSO in parallel plates
Measured: 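Cell viability by ATP luminescence (CellTiter-Glo) as % of non-targeting siRNA wells, and the log2 ratio of viability without drug over viability with camptothecin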
Direction: log2 vehicle/camptothecin viability: higher = stronger sensitisation to camptothecin
Active means: 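Each gene scored by redundant siRNA activity (RSA) over its individual siRNA ratios; a gene is called active at p < 0.001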

log2 vehicle/camptothecin viability, by gene and reagent
IMPDH1: #1 -0.0789; #2 0.0686; #3 -0.237; #4 -0.334
ASB3: #1 0.368; #2 -0.105; #3 0.265; #4 -0.235
GAS6: #1 -0.119; #2 0.18; #3 0.0853; #4 -0.215
CBFB: #1 -0.0197; #2 0.0503; #3 -0.22
CCK: #1 0.0742; #2 -0.349; #3 0.464
MET: #1 -0.29; #2 -0.258; #3 -0.329; #4 -0.268
COQ9: #1 -0.276; #2 -0.109; #3 0.149; #4 -0.0237
CFLAR: #1 0.113; #2 -0.707
MOCS2: #1 -0.478; #2 -0.177; #3 -0.334; #4 -0.461
USP35: #1 -0.296; #2 0.022; #3 -0.442; #4 0.362
LMAN1: #1 -0.308; #2 -0.475
CSF2RB: #1 0.213; #2 -0.181; #3 -0.379; #4 0.254
DEDD2: #1 -0.289; #2 -0.0162; #3 0.0255; #4 0.134

Ordered by “log2 vehicle/camptothecin viability” (lowest first): some entries from above
Gene	reagent	log2 vehicle/camptothecin viability
MET	3	-0.329
MET	1	-0.29
COQ9	1	-0.276
MET	4	-0.268
MET	2	-0.258
